# No constants are given. Whether binding was seen depends on the method and setting. For some of these results: In cells and extracts the contact can be indirect. Some results given as binding are weak or reduced against the parent protein; the word gives no strength.
# Chains of the proteins cited; added tags and fusions are not shown. Lines headed by an entry give the natural chain unless they say otherwise; changes in a name come on top.
# UniProt P26006: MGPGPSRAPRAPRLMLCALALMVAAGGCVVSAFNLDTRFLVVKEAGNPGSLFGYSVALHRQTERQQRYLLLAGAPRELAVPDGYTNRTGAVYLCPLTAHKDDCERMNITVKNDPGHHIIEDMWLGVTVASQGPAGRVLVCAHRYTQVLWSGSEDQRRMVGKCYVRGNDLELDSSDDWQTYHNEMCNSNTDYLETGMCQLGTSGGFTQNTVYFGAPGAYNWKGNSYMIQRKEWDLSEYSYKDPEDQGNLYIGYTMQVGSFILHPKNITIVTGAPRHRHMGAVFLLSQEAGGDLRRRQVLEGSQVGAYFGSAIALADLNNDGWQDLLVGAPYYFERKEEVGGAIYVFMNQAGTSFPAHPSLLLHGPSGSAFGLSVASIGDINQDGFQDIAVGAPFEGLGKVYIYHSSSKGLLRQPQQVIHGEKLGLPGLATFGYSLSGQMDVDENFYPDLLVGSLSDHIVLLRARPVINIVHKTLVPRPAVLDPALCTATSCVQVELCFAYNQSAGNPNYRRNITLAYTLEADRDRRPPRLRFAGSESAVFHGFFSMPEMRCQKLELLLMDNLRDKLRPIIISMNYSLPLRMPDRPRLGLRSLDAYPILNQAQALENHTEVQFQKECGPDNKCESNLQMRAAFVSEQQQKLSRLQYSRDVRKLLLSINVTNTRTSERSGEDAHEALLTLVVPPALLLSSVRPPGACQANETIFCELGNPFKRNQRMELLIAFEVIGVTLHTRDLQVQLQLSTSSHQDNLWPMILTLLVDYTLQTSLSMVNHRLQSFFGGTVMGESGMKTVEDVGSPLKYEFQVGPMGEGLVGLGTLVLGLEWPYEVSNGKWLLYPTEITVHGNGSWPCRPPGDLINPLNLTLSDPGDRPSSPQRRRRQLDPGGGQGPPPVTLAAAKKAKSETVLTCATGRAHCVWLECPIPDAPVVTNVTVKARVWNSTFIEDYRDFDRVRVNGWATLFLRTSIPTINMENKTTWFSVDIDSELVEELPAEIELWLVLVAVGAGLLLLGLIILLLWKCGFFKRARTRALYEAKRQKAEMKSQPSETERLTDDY
# B1: human syndecan-1 (receptor)
# chain: QIVATNLPPEDQDGSGDDSDNFSGSGAGALQDITLSQQTPSTWKDTQLLTAIPTSPEPTGLEATAASTSTLPAGEGPKEGEAVVLPEVEPGLTAREQEATPRPRETTQLPTTHQASTTTATTAQEPATSHPHRDMQPGHHETSTPAGPSQADLHTPHTEDGGPSATERAAEDGASSQLPAAEGSGEQDFTFETSGENTAVVAVEPDRRNQSPVDQGATGASQGLLDRKEVLGGVIAGGLVGLIFAVCLVGFMLYRMKKKDEGSYSLEEPKQANGGAYQKPTKQEEFYA
# notes: Endogenous Sdc1 of human cells, immunoprecipitated from cell lysates; also called hSdc1; Sdc1
# B2: mouse syndecan-4 (receptor, UniProt O35988 24-198, looked up)
# chain: ESIRETEVIDPQDLLEGRYFSGALPDDEDAGGSDDFELSGSGDLDDTEEPRPFPEVIEPLVPLDNHIPENAQPGIRVPSEPKELEENEVIPKRAPSDVGDDMSNKVSMSSTAQGSNIFERTEVLAALIVGGVVGILFAVFLILLLVYRMKKKDEGSYDLGKKPIYKKAPTNEFYA
# Tests used:
# HER2 [1] = biological target: T1, HER2 (human, UniProt P04626 23-1255); assay: co-immunoprecipitation from HNSCC, MCF10A and BT474 cell lysates
# T1 construct: whole, on cells; Endogenous protein in cell lysates; also called ErbB2; HER2/Neu
# HER2 [2] = biological target: T1, HER2; assay: co-immunoprecipitation from cell lysates
# HER2 [3] = biological target: T1, HER2; assay: immunoprecipitation from MCF10A or BT474 lysates, blot probed for HER2 (FIG. 5)
# α3β1 integrin = biological target: T2, α3β1 integrin (human, UniProt P26006 33-1051; P05556 21-798); assay: immunoprecipitation (FIG. 6D)
# T2 construct: whole, on cells; Endogenous receptor in cell lysates
Binder,binding (HER2 [1]),binding (HER2 [2]),binding (HER2 [3]),binding (α3β1 integrin)
B1,binds,binds,binds,
B2,,,,binds

# Reference: patent US20140011746A1 (WISCONSIN ALUMNI RESEARCH FOUNDATION, published 2014)
